Experimental data as given in PMC7696408.
Results are given in words; binding and its absence hold for the method and conditions named. In cells and extracts the contact can be indirect. Some binding calls cover weakened binding; strength is not graded here. Tags and fused reporters may be left off the sequences shown.

B1: HA-RAP2A (protein, UniProt P10114 1-183)
chain: MREYKVVVLGSGGVGKSALTVQFVTGTFIEKYDPTIEDFYRKEIEVDSSPSVLEILDTAGTEQFASMRDLYIKNGQGFILVYSLVNQQSFQDIKPMRDQIIRVKRYEKVPVILVGNKVDLESEREVSSSEGRALAEEWGCPFMETSAKSKTMVDELFAEIVRQMNYAAQPDKDDPCCSACNIQ
B2: HA-S100A11 (protein, UniProt P31949 1-105)
chain: MAKISSPTETERCIESLIAVFQKYAGKDGYNYTLSKTEFLSFMNTELAAFTKNQKDPGVLDRMMKKLDTNSDGQLDFSEFLNLIGGLAMACHDSFLKAVPSQKRT
B3: HA-PGD (protein, UniProt P52209 1-483)
chain: MAQADIALIGLAVMGQNLILNMNDHGFVVCAFNRTVSKVDDFLANEAKGTKVVGAQSLKEMVSKLKKPRRIILLVKAGQAVDDFIEKLVPLLDTGDIIIDGGNSEYRDTTRRCRDLKAKGILFVGSGVSGGEEGARYGPSLMPGGNKEAWPHIKTIFQGIAAKVGTGEPCCDWVGDEGAGHFVKMVHNGIEYGDMQLICEAYHLMKDVLGMAQDEMAQAFEDWNKTELDSFLIEITANILKFQDTDGKHLLPKIRDSAGQKGTGKWTAISALEYGVPVTLIGEAVFARCLSSLKDERIQASKKLKGPQKFQFDGDKKSFLEDIRKALYASKIISYAQGFMLLRQAATEFGWTLNYGGIALMWRGGCIIRSVFLGKIKDAFDRNPELQNLLLDDFFKSAVENCQDSWRRAVSTGVQAGIPMPCFTTALSFYDGYRHEMLPASLIQAQRDYFGAHTYELLAKPGQFIHTNWTGHGGTVSSSSYNA

Legend:
FlagBirA*-HRAS (human) = FlagBirA*-HRAS (human) (UniProt P01112); assay: proximity ligation; Duolink PLA in methanol-fixed FlagBirA*-RAS T-REx 293 cells transfected with 3xHA-tagged candidate, tetracycline-induced; mouse anti-Flag and rabbit anti-HA; dots per cell, 100 cells; radius ~30 nm
FlagBirA*-KRAS4B (human) = FlagBirA*-KRAS4B (human) (UniProt P01116); assay: as above

| Binder | binding (FlagBirA*-HRAS (human)) | binding (FlagBirA*-KRAS4B (human)) |
| --- | --- | --- |
| B1 | binds |  |
| B2 | binds |  |
| B3 |  | binds |
